Results: patent US4687760A, “Reduced peptides which inhibit gastric secretion, process for their preparation and pharmaceutical compositions in which they are present” (Sanofi, priority 1984, dated 1987)
Part of at least one peptide drawing is inferred or uncertain, most often the ends. Some entries repeat one wording, which the source may state once for all of them.

Tested on: gastric secretion stimulated by gastrin
Assay: reperfused anesthetized rat's stomach: effect on gastric secretion (modified Ghosh and Schild)
Format: in vivo
Conditions: for ED50, dose which causes a 50% inhibition of the gastric secretion stimulated by gastrin (antagonistic effect): i.v., gastrin-stimulated acid secretion
[1] = peptide on its own, studied analogously, dose not given

Question: For `CSCC[C@@H](CN[C@@H](CC(=O)O)C(=O)N[C@@H](Cc1ccccc1)C(N)=O)NC(=O)[C@H](Cc1c[nH]c2ccccc12)NC(=O)OC(C)(C)C` [Example 3], which “ED50, dose which causes a 50% inhibition of the gastric secretion stimulated by gastrin (antagonistic effect)” value (anesthetized Wistar rat) is on record?
Answer: 0.3 mg/kg

Question: What about the agonistic effect [1] of the same compound?
Answer: no agonistic effect

Question: Which results are given for `CCCC[C@@H](CN[C@@H](CC(=O)O)C(=O)N[C@@H](Cc1ccccc1)C(N)=O)NC(=O)[C@H](Cc1c[nH]c2ccccc12)NC(=O)OC(C)(C)C` [Example 2]?
Answer: ED50, dose which causes a 50% inhibition of the gastric secretion stimulated by gastrin (antagonistic effect) (anesthetized Wistar rat): 0.3 mg/kg; agonistic effect [1]: no agonistic effect

Question: What does the source list for `CC(C)C[C@@H](CN[C@@H](CC(=O)O)C(=O)N[C@@H](Cc1ccccc1)C(N)=O)NC(=O)[C@H](Cc1c[nH]c2ccccc12)NC(=O)OC(C)(C)C` [Example 1]?
Answer: ED50, dose which causes a 50% inhibition of the gastric secretion stimulated by gastrin (antagonistic effect) (anesthetized Wistar rat): 0.3 mg/kg; agonistic effect (peptide administered on its own i.v., up to a dose of 1 mg/kg, anesthetized Wistar rat): no agonistic effect
